The record followed here is article PMC5006980.

To fix the notation:
B1: full-length rat PLK2 T236E (constitutively active kinase domain) fused to the GAL4 activation domain (enzyme, UniProt Q9R012 1-682)
chain: MELLRTITYQPAAGTKMCEQALGKACGGDSKKKRPQQPSEDGQSQAQVTPAAPHHHHHHSHSGPEISRIIVDPTTGKRYCRGKVLGKGGFAKCYEMTDLTNNKVYAAKIIPHSRVAKPHQREKIDKEIELHRILHHKHVVQFYHYFEDKENIYILLEYCSRRSMAHILKARKVLTEPEVRYYLRQIVSGLKYLHEQEILHRDLKLGNFFINEAMELKVGDFGLAARLEPLEHRRREICGTPNYLSPEVLNKQGHGCESDIWALGCVMYTMLLGRPPFETTNLKETYRCIREARYTMPSSLLAPAKHLIASMLSKNPEDRPSLDDIIRHDFFLQGFTPDRLSSSCCHTVPDFHLSSPAKNFFKKAAAALFGGKKDKARYNDTHNKVSKEDEDIYKLRHDLKKTSITQQPSKHRTDEELQPPPTTFAKSGTSAVENKQQIGDAIRMIVRGTLGSCSSSSECLEDSTMGSVADTVARVLRGCLENMPEADCIPKEQLSTSFQWVTKWVDYSNKYGFGYQLSDHTVGVLFNNGAHMSLLPDKKTVHYYAELGQCSVFPATDAPEQFISQVTVLKYFSHYMEENLMDGGDLPSVTDIRRPRLYLLQWLKSDKALMMLFNDGTFQVNFYHDHTKIIICNQNEEYLLTYINEDRISTTFRLTTLLMSGCSLELKHRMEYALNMLLQRCN
B2: full-length rat PLK2 K108M (inactive kinase domain) fused to the GAL4 activation domain (enzyme, UniProt Q9R012 1-682)
chain: B1 chain with K108M, E236T
B3: full-length rat PLK2 W504F (inactive polo-box domain) fused to the GAL4 activation domain (enzyme, UniProt Q9R012 1-682)
chain: B1 chain with E236T, W504F

Numbering of substitutions follows the chain as printed. Numbers in names are those of the source. Results are given in words; binding and its absence hold for the method and conditions named. For part of these data: A result given as binding can be weak or reduced; the word gives no strength. Sequences can lack the tags named with a protein.

One assay concerns the target full-length PFV Gag P226A fused to the GAL4 DNA binding domain (prototype foamy virus (PFV)). Kind of assay: two-hybrid; directed Y2H, Matchmaker System, S. cerevisiae AH109; baits fused to GAL4 DB, preys fused to GAL4 AD; growth on quadruple-dropout (-Leu/-Trp/-Ade/-His) agar after two to four days at 30°C.
Regarding B1, the binding result was “no binding”.
As to B2, the binding result was “no binding”.
Turning to B3, the binding result was “no binding”.

The target of another assay is full-length PFV Gag S224A fused to the GAL4 DNA binding domain (prototype foamy virus (PFV)). The description is as above.
On to B1, for which the binding entry is “no binding”.
Still for that read-out and setting: next, B2: “no binding”; B3: “no binding”.

The target in another assay is full-length PFV Gag T225A fused to the GAL4 DNA binding domain (prototype foamy virus (PFV)). The assay is described as above.
Take B1: the binding entry is listed as “no binding”.
Take B2: the binding result was “no binding”.
Take B3: the binding result was “no binding”.

The target in a further assay is full-length PFV Gag T225D fused to the GAL4 DNA binding domain (prototype foamy virus (PFV)). The description is as above.
With B1, the binding result is recorded as “no binding”.
Turning to B2, the binding entry is listed as “no binding”.
Same read-out and setting: as for B3, the entry is “no binding”.

The target of the next assay is full-length PFV Gag T225E fused to the GAL4 DNA binding domain (prototype foamy virus (PFV)). The assay is described as above.
With B1, the binding result is reported as “no binding”.
Turning to B2, the binding result is given as “no binding”.
For B3, the binding entry is recorded as “no binding”.

For another assay, the target named is full-length PFV Gag fused to the N-terminus of the GAL4 DNA binding domain (Gag-DB) (prototype foamy virus (PFV)). The assay is described as above.
With B1, the binding result is given as “binds”.
Consider B2, for which the binding entry is recorded as “no binding”.
On the same count and under the same terms, as for B3, the entry is “no binding”.
